Reference: patent US20210277098A1 (MITSUBISHI TANABE PHARMA, published 2021)
No constants are given. Whether binding was seen depends on the method and setting. A result given as binding can be weak or reduced; the word gives no strength. For part of these data: Sequences can lack the tags named with a protein.

Assays:
[1] = biological target: Human RGMa protein (R&D systems, 2459-RM) (human); test: ELISA on immobilised human RGMa; antibody in culture supernatant at 125 ng/mL after 10 min of heat treatment
[2] = biological target: Human RGMa protein (R&D systems, 2459-RM) (human); test: ELISA on immobilised human RGMa, antibody 125 ng/mL, no heat treatment

B1: humanized anti-RGMa antibody rH116A3 (combination of heavy chain HE and light chain KA) (antibody, human IgG1, kappa, V domains shown)
VH: EVQLVESGGGLVQPGRSLRLSCTASGFTFSDAWMDWVRQAPGKGLEWVAEIRSKANNHATYYAESVKGRFTISRDDSKSIVYLQMNSLRTEDTALYYCTRRDGAYWGKGTTVTVSS
VL: DIQMTQSPSSVSASVGDRVTITCRASQDISSYLNWYQQKPGKAPKLLIYYTSRLHSGVPSRFSGSGSGTDFTLTISSLQPEDFASYFCQQLNTLPWTFGGGTKVEMER
[1]
  binding: binds
[2]
  binding: binds

B2: HA/KC (antibody, human IgG1, kappa, V domains shown)
VH: EVQLVESGGGLVQPGRSLRLSCTASGFTFSDAWMDWFRQAPGKGLEWVAEIRSKANNHATYYAESVKGRFTISRDDSKSIAYLQMNSLKTEDTALYYCTRRDGAYWGKGTTVTVSS
VL: DIQMTQSPSSVSASVGDRVTITCRASQDISSYLNWYQQKPGKAVKLLIYYTSRLHSGVPSRFSGSGSGTDYTLTISSLQPEDFASYFCQQLNTLPWTFGGGTKVEMER
[1]
  binding: binds
